# PubChem BioAssay AID602196 | INSERM – 2012
# Test: 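Modifiers of cisplatin sensitivity in A549 cells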
# Cell system: human A549 lung cancer cells
# Reagents: siRNA pair against human genes
# Duration: 48 h transfection before cisplatin; time from cisplatin to read-out not stated
# Treatment: cisplatin at a dose killing half of control-siRNA cells; exact dose and duration not given
# Measured: 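Cisplatin cell death as a shift from the 50% death seen with control siRNA; siRNAs toxic or growth-blocking alone scored 0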
# Scale: two-siRNA summed score (-2 to +2): higher = both siRNAs protect from cisplatin killing; -2 means both sensitise; mean protection from cisplatin (shift in death) and protection from cisplatin (shift in death), siRNA C and protection from cisplatin (shift in death), siRNA D: higher = protection from cisplatin killing
# Rule for the call: 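siRNAs harmful alone (LDH or WST-1) get 0; others get +1 for less and -1 for more cisplatin killing; genes are active when the two siRNAs give the same sign, summing to ±2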
# Calls: active = both siRNAs shift cisplatin killing the same way; inactive = no consistent shift, or siRNA harmful alone
# The deposit covers about 23,000 reagents; this is an unselected part. 455 of all reagents (2%) count as active. 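Active includes both protection and sensitisation; some change values fall well beyond the stated -50 to +50 range.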 Entries without a mark were called inactive. Reagents against one gene are numbered here. No sequences are given here. Not stated in the record: the amount of reagent.
gene symbol,reagent no.,two-siRNA summed score (-2 to +2),mean protection from cisplatin (shift in death) (%),"protection from cisplatin (shift in death), siRNA C (%)","protection from cisplatin (shift in death), siRNA D (%)"
LOC387910,1,0,0.6,-2.6,3.8
PRDM2,1,0,10.5,5.5,15.5
TRAM1,1,0,-10.2,11,-31.4
LINC00470,1,0,5.8,-10.9,22.5
LOC441650,1,0,-1.7,-9.3,5.8
OR5V1,1,0,0.7,-0.6,1.9
CCT4,1,-1,-13.1,-8.4,-17.8
MMP25,1,-2 (active),-27.3,-19.5,-35.1
MMP25,2,0,3.2,-3.1,9.4
LOC442220,1,1,9.6,11,8.2
LOC220998,1,1,5.1,-3.2,13.4
CELF5,1,-1,-1.2,-11.4,8.9
CEP57,1,1,14.5,0,28.9
LRIG1,1,-1,-2.3,-17.3,12.7
LOC441239,1,0,4.5,11.2,-2.2
LOC388934,1,0,2.8,3.7,2
PSMA4,1,0,5.1,-0.3,10.4
LOC388564,1,0,11.7,20,3.5
PDE7B,1,-1,-15,-14.6,-15.4
LOC392262,1,0,0.8,-4,5.5
IPCEF1,1,0,7.2,-3.1,17.5
NRIP1,1,-1,-17,-8.4,-25.6
COPE,1,0,0.1,-8.2,8.3
PGK2,1,0,3.1,10.9,-4.7

Continued (10 carried over from the part before).
gene symbol,reagent no.,two-siRNA summed score (-2 to +2),mean protection from cisplatin (shift in death) (%),"protection from cisplatin (shift in death), siRNA C (%)","protection from cisplatin (shift in death), siRNA D (%)"
LOC441239,1,0,4.5,11.2,-2.2
LOC388934,1,0,2.8,3.7,2
PSMA4,1,0,5.1,-0.3,10.4
LOC388564,1,0,11.7,20,3.5
PDE7B,1,-1,-15,-14.6,-15.4
LOC392262,1,0,0.8,-4,5.5
IPCEF1,1,0,7.2,-3.1,17.5
NRIP1,1,-1,-17,-8.4,-25.6
COPE,1,0,0.1,-8.2,8.3
PGK2,1,0,3.1,10.9,-4.7
ISG20,1,1,24.8,44.1,5.5
HES5,1,0,1.1,8,-5.8
NBPF11,1,0,7.1,6.5,7.8
PIKFYVE,1,2 (active),20.8,10.5,31.2
LOC440120,1,0,7.6,10.9,4.4
ANKRD36,1,0,-7,-8.7,-5.3
KCNIP2,1,0,14.4,8.1,20.6
LOC387630,1,0,4.5,8,0.9
LOC347421,1,0,11.6,9.7,13.5
GNG11,1,0,-14.2,-10.3,-18.1
PDYN,1,0,9.6,29,-9.9
ZSCAN18,1,0,1.7,8,-4.7
ING2,1,0,7.9,-13.9,29.6
DARS2,1,0,3.7,4.6,2.8
PI4K2A,1,0,3.9,-6.3,14.1
RNF121,1,1,2.7,-9.6,14.9
SETDB2,1,1,25.2,11.8,38.5
ZNF546,1,0,2.2,12.6,-8.3
LITAF,1,0,-1.5,-4.8,1.8
LOC388381,1,0,-4.9,2.3,-12.2
NDUFC2,1,-1,-1.4,-26.3,23.4
LOC442596,1,0,6.8,8.8,4.8
KLF11,1,-1,-7,0.8,-14.8
SHROOM1,1,0,17.4,-6.8,41.5
TRAF4,1,0,3.6,4.4,2.8
LOC440377,1,0,3.7,4.2,3.2
PCDHAC1,1,0,6.7,10.6,2.8
PCDHGA4,1,0,4.3,-1.3,9.9
OR4A47,1,0,2.4,-3.3,8.2
TAS2R7,1,0,-2.8,-3.9,-1.7
CLCNKA,1,1,5,17.3,-7.3
CSH1,1,-1,-5.4,10.5,-21.3
ANO10,1,0,1.2,-2.9,5.3
CASQ2,1,0,2.4,-0.1,4.9
LOC440229,1,0,9.5,9.6,9.4
RAMAC,1,0,2.2,7.2,-2.8
ACAA1,1,1,18.5,26.8,10.2
LOC402353,1,0,2.8,11.7,-6.1
DPP3,1,-1,-0.6,9.8,-11
SMG7,1,0,8.9,-1,18.7
COX11,1,-1,-15.1,-13.3,-16.8
TRAPPC6B,1,0,3.8,8.2,-0.6
LOC440524,1,1,9.3,2,16.5
NUP210L,1,0,8.5,5.2,11.7
LOC400526,1,0,3.9,12.8,-5
FAM169BP,1,0,13.9,5.9,22
CSNK1A1P1,1,1,9.4,3.2,15.6
LINC02120,1,0,9.2,13.5,4.9
FATE1,1,0,8,12.3,3.7
